# Some of the results follow. Residues, ends and D or L forms follow the SMILES beside them. *: point of attachment. Cbz = O=C(OCc1ccccc1)*
# Protein sequences, listed by entry. Tags and fused reporters are not part of them. Lines headed by an entry give the natural chain unless they say otherwise; changes in a name come on top.
# UniProt Q32P41: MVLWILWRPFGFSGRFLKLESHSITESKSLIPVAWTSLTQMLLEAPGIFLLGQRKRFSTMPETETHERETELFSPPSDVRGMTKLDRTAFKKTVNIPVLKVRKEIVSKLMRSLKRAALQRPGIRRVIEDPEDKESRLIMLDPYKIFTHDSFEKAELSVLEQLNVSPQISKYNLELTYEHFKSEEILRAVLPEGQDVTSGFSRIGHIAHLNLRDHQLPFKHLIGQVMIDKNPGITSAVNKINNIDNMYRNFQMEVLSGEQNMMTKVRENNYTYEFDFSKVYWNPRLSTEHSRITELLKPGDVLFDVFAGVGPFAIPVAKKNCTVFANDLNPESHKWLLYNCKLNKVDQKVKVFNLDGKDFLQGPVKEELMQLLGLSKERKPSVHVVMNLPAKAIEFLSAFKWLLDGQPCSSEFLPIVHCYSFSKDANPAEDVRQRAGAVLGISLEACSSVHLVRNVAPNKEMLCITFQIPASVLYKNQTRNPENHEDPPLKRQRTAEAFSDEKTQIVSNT
# UniProt Q13263: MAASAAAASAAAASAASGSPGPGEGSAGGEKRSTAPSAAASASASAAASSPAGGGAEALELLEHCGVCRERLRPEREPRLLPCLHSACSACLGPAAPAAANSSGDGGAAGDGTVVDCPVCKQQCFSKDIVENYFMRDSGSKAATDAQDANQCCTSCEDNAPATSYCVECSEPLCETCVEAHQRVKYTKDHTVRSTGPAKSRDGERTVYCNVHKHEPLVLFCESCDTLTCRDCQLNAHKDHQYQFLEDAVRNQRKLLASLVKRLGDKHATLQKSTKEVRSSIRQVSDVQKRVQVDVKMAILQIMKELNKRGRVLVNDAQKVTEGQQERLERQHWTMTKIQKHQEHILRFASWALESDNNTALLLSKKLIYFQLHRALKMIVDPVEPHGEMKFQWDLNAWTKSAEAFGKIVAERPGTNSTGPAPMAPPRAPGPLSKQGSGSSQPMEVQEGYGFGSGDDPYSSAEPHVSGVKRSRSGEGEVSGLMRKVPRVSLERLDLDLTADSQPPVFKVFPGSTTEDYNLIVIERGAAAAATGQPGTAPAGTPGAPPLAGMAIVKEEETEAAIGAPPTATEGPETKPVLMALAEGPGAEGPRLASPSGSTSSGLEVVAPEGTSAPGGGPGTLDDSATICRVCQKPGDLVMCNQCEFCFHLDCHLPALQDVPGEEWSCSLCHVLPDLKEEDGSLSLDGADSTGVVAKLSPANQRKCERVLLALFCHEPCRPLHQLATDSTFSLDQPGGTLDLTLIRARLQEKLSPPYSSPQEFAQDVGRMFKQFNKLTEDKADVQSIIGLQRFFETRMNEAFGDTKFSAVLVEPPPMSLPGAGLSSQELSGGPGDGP
# UniProt Q8TEL6: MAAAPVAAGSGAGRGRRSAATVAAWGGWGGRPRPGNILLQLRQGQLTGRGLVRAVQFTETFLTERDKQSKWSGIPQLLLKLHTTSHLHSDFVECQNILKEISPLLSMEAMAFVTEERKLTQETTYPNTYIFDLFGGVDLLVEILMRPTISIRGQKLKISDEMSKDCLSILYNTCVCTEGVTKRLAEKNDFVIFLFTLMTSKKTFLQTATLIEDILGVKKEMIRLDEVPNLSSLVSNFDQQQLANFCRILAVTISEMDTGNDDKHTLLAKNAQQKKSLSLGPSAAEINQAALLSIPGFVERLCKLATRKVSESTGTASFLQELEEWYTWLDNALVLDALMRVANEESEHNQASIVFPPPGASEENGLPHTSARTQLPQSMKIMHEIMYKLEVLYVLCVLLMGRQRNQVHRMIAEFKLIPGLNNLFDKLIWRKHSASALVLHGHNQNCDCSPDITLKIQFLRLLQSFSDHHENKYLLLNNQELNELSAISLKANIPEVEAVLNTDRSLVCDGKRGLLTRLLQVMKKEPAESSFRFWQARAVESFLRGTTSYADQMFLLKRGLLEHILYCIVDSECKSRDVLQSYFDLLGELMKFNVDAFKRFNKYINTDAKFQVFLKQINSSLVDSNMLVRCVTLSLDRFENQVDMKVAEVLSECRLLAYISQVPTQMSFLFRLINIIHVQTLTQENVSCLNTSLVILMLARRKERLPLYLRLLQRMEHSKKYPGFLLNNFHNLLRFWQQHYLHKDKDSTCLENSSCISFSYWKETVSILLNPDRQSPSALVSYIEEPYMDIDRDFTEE
# UniProt Q96DX7: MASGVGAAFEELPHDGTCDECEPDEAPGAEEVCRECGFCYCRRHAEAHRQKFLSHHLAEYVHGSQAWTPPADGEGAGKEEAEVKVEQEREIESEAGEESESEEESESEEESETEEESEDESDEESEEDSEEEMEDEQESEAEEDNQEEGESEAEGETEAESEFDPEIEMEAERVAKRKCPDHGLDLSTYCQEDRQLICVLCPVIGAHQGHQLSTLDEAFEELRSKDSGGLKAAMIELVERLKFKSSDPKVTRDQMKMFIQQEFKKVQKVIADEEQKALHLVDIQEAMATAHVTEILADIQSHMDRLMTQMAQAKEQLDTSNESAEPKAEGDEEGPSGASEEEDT
# UniProt Q8N4H5: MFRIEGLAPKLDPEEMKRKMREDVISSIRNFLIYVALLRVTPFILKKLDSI
# UniProt Q9UKE5: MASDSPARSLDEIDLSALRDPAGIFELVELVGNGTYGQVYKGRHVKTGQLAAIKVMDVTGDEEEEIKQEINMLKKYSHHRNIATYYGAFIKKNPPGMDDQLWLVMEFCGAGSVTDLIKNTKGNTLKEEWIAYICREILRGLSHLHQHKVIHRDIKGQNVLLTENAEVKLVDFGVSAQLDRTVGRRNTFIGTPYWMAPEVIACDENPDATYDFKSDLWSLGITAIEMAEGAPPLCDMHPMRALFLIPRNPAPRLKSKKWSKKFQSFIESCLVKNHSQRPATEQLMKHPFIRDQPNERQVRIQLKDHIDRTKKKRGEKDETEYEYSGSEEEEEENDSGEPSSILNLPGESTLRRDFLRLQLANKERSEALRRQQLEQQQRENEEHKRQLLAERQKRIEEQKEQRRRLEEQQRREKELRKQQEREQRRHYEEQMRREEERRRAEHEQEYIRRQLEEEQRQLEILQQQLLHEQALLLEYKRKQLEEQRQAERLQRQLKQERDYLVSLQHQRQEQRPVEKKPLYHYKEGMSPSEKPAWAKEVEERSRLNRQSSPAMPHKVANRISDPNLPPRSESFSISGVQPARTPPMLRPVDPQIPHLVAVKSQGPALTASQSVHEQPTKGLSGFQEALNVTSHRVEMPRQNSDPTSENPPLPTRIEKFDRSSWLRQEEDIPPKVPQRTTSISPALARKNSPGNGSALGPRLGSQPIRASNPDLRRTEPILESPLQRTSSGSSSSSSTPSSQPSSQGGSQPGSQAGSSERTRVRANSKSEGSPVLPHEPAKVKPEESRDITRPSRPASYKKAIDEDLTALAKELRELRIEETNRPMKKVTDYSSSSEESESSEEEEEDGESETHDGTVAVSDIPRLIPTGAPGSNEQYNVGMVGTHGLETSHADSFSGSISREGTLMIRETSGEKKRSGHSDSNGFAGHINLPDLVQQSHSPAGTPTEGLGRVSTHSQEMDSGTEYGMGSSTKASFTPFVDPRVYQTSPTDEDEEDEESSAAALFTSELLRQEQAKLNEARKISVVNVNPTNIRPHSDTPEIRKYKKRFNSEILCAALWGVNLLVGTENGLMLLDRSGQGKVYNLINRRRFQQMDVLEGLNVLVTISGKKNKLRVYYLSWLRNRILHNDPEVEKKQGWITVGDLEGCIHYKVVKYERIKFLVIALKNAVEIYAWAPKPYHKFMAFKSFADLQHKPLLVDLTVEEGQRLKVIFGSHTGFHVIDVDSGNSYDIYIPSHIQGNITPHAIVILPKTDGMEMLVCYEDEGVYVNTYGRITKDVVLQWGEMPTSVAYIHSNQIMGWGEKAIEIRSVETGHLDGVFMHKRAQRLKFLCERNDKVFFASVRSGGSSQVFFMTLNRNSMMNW
# UniProt Q6Q0C0: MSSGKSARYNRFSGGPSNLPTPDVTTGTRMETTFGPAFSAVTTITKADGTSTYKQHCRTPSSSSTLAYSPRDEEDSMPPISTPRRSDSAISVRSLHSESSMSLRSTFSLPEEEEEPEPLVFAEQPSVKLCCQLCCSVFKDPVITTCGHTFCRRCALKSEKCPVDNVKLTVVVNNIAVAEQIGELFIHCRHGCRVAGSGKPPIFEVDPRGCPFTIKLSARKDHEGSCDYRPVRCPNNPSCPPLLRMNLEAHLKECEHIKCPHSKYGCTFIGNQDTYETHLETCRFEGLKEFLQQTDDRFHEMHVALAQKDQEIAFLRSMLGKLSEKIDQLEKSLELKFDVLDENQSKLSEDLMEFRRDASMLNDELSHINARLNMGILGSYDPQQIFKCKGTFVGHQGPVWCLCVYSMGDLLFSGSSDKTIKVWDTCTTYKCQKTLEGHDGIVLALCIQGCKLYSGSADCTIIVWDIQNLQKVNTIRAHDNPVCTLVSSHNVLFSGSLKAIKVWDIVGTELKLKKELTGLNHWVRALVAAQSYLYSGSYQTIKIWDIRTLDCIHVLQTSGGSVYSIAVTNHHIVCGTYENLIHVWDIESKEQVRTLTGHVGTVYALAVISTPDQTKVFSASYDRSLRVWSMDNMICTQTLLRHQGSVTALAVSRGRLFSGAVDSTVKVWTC
# UniProt O43617, whole entry, looked up: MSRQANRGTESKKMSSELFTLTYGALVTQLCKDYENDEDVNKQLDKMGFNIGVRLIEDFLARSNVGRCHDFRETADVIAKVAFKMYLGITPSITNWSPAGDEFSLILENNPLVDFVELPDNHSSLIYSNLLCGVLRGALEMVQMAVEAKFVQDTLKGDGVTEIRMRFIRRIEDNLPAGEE
# UniProt Q9UL33, whole entry, looked up: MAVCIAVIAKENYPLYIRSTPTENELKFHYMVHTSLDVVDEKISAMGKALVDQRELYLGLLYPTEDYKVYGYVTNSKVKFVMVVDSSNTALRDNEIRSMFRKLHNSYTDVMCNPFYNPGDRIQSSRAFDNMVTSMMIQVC
# UniProt Q9Y5R8, whole entry, looked up: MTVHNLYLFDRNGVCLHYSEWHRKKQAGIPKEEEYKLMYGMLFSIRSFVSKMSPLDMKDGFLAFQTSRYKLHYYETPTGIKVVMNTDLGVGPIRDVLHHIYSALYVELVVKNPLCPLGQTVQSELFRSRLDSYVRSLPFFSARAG
# UniProt Q9H3S4: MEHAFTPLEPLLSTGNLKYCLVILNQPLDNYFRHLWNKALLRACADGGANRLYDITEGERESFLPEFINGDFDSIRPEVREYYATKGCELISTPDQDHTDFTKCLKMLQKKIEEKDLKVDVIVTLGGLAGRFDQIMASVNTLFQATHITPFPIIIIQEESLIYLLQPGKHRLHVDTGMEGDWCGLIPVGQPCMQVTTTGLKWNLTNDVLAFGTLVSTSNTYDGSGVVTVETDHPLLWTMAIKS
# UniProt Q07912: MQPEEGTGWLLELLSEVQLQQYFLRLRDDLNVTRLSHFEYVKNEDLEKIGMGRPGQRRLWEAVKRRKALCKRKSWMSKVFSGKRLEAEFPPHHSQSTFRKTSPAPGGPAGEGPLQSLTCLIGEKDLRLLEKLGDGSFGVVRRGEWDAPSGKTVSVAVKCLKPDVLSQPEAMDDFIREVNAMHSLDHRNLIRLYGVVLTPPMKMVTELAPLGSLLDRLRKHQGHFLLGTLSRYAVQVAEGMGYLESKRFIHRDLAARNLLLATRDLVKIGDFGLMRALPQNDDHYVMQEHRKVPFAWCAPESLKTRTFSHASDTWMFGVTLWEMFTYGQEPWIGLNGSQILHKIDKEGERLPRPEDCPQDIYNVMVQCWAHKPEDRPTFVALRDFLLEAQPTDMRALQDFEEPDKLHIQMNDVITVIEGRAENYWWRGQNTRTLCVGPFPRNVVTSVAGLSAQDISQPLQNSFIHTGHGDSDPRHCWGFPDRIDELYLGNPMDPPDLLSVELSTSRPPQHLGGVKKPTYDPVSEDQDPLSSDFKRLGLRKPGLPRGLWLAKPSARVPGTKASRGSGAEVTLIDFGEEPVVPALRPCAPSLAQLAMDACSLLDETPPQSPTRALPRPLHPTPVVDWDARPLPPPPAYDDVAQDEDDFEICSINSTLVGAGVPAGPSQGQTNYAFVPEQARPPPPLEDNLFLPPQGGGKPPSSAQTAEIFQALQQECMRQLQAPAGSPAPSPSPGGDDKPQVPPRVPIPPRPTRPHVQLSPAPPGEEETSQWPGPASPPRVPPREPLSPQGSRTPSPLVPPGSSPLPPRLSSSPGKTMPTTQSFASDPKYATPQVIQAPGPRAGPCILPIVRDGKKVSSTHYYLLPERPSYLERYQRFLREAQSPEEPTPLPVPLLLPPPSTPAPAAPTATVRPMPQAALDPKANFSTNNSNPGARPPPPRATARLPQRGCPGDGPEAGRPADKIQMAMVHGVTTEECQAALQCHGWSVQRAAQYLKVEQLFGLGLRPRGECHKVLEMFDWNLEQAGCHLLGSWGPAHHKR
# UniProt Q13595: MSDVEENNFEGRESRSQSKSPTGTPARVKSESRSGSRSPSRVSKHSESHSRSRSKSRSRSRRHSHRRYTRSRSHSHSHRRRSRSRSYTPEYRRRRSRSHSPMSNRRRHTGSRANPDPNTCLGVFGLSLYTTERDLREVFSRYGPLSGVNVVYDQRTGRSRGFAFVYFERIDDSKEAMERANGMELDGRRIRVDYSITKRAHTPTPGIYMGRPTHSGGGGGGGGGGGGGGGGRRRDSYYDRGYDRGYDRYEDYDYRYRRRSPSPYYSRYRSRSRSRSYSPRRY
# Tests used:
# Assay in all cases: log2 fold change, soluble protein after heating vs DMSO (PISA); higher = thermal stabilisation; K562 cells, 10 uM, 30 min; active = over 0.2 and 3.5 SD of the protein, either way, in both replicates (recomputed)
# erlotinib = compound: C#Cc1cccc(Nc2ncnc3cc(OCCOC)c(OCCOC)cc23)c1 [erlotinib]
# Method in brief: (§1)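 Aliquots of K562 cells (2×10^6 cells/mL) treated with 10 μM compound for 30 min were heated for 3 min over 48°C-58°C. After pooling and extraction in PBS with 0.5% NP-40 at 4°C, soluble protein from a 21,000xg, 90 min spin was quantified by TMTpro 16plex LC-MS/MS with channel sums equalised. Thermal stability is expressed against control samples, from duplicates, as a log2 fold change.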
# [1] = compound: C/C(=N\NC(=O)C1=CC(=CC=C1)S(=O)(=O)N2CCOCC2)/C3=C(C=CC(=C3)Cl)O
# Method in brief: as §1
# [2] = compound: C1=CC(=C(C=C1Cl)C2=NC3=NC=CN=C3C(=N2)NC4=CC=NC=C4)F
# Method in brief: as §1
# [3] = compound: C1=CC(=CC=C1C2=NC3=C(N2)C=C(C=C3)C(=O)N)OC4=CC=C(C=C4)Cl
# Method in brief: as §1
# [4] = compound: C1=CC2=C(C=CC(=C2)/C=C\3/C(=O)NC(=NCC4=CC=CS4)S3)N=C1
# Method in brief: as §1
# [5] = compound: C1=CC2=NC=CN=C2C=C1/C=C/3\C(=O)NC(=O)S3
# Method in brief: as §1
# [6] = compound: C1=CC=C(C=C1)C2=NC(=C(N2)C3=CC=NC=C3)C4=CC(=C(C=C4)Cl)O
# Method in brief: as §1
# [7] = compound: C1=CC=C2C(=C1)C3=NNC4=CC=CC(=C43)C2=O
# Method in brief: as §1
# [8] = compound: C1CCN(C1)C(=O)NC2=CC=CC(=C2)NC3=NC=C(C(=N3)NCCC4=CN=CN4)Br
# Method in brief: as §1
# [9] = compound: C1CN(CCC1(CC2=CC=C(C=C2)Cl)N)C3=NC=NC4=C3C=CN4
# Method in brief: as §1
# IRAK-1-4 Inhibitor I = compound: C1COCCN1CCN2C3=CC=CC=C3N=C2NC(=O)C4=CC(=CC=C4)[N+](=O)[O-] [IRAK-1-4 Inhibitor I]
# Method in brief: as §1
# ibrutinib = compound: C=CC(=O)N1CCC[C@@H](n2nc(-c3ccc(Oc4ccccc4)cc3)c3c(N)ncnc32)C1 [ibrutinib]
# Method in brief: as §1
# [10] = compound: CC(=O)c1cnc2ccc(-c3cc(Cl)c(O)c(Cl)c3)nc2c1N[C@H]1CC[C@H](CN(C)C)CC1
# Method in brief: as §1
# ralimetinib = compound: CC(C)(C)Cn1c(N)nc2ccc(-c3[nH]c(C(C)(C)C)nc3-c3ccc(F)cc3)nc21 [ralimetinib]
# Method in brief: as §1
# [11] = compound: CC(C)(O)CC(=O)NCCn1ccc2ncnc(Nc3ccc(Oc4cccc(C(F)(F)F)c4)c(Cl)c3)c21
# Method in brief: as §1
# [12] = compound: CC(C)C1=C2N=C(C=C(N2N=C1)NCC3=CC=CC=C3)NCCCCCCN
# Method in brief: as §1
# [13] = compound: CC(C)C[C@@H](C=O)NC(=O)[C@H](CC(C)C)NC(=O)[C@H](CC(C)C)NC(=O)OCc1ccccc1
# Method in brief: as §1
# pinometostat = compound: CC(C)N(C[C@H]1O[C@@H](n2cnc3c(N)ncnc32)[C@H](O)[C@@H]1O)[C@H]1C[C@@H](CCc2nc3cc(C(C)(C)C)ccc3[nH]2)C1 [pinometostat]
# Method in brief: as §1
# [14] = compound: CC1=C(C2=C(C=C1)C(=O)C3=CC=CC=C3N2CCCN)C
# Method in brief: as §1
# [15] = compound: CC1=C(C(CC(=O)N1)C2=CC=C(C=C2)C(F)(F)F)C(=O)NC3=C(C=C4C(=C3)C=NN4)F
# Method in brief: as §1
Target,log2 fold change (erlotinib),log2 fold change [1],log2 fold change [2],log2 fold change [3],log2 fold change [4],log2 fold change [5],log2 fold change [6],log2 fold change [7],log2 fold change [8],log2 fold change [9],log2 fold change (IRAK-1-4 Inhibitor I),log2 fold change (ibrutinib),log2 fold change [10],log2 fold change (ralimetinib),log2 fold change [11],log2 fold change [12],log2 fold change [13],log2 fold change (pinometostat),log2 fold change [14],log2 fold change [15]
TP53BP1 isoform 2 (UniProt Q12888),inactive: -0.011,inactive: 0.019,inactive: -0.017,inactive: -0.001,inactive: 0.012,inactive: 0.043,inactive: -0.024,inactive: -0.078,inactive: -0.057,inactive: -0.077,inactive: -0.059,inactive: -0.046,inactive: -0.002,inactive: 0.056,inactive: -0.024,inactive: -0.089,inactive: 0.019,inactive: 0.021,active: -0.337,–
TRMT5 (UniProt Q32P41),inactive: 0.128,inactive: -0.052,inactive: -0.093,inactive: 0.118,inactive: 0.193,inactive: 0.064,–,inactive: 0.019,inactive: -0.105,inactive: -0.129,inactive: -0.528,inactive: 0.002,inactive: -0.265,–,inactive: -0.118,inactive: -0.453,–,inactive: 0.237,inactive: 0.215,inactive: -0.254
TRIM28 (UniProt Q13263),inactive: 0.001,inactive: 0.077,inactive: 0.041,inactive: -0.023,inactive: -0.021,inactive: 0.018,inactive: -0.023,inactive: 0.004,inactive: -0.013,inactive: -0.026,inactive: -0.008,inactive: -0.033,inactive: 0.052,inactive: -0.003,inactive: -0.035,inactive: -0.087,inactive: 0.018,inactive: -0.056,inactive: -0.152,–
TRPC4AP (UniProt Q8TEL6),inactive: -0.006,inactive: -0.005,inactive: -0.073,inactive: 0.073,inactive: -0.025,–,inactive: 0.028,inactive: 0.045,inactive: 0.001,inactive: -0.1,inactive: -0.006,–,inactive: 0.045,inactive: -0.005,inactive: -0.048,inactive: -0.025,inactive: 0.219,inactive: 0.202,inactive: -0.143,inactive: 0.133
TRIM44 (UniProt Q96DX7),inactive: 0.022,inactive: 0.1,–,inactive: 0.025,inactive: 0.028,inactive: 0.087,inactive: -0.061,inactive: -0.037,inactive: -0.023,inactive: -0.014,inactive: 0.031,inactive: 0.018,inactive: 0.067,inactive: -0.094,–,inactive: -0.06,inactive: 0.061,inactive: -0.01,active: -0.327,–
TOMM5 isoform 2 (UniProt Q8N4H5),inactive: -0.115,inactive: 0.063,active: 0.378,inactive: 0.134,inactive: 0,inactive: 0.052,inactive: -0.123,inactive: -0.003,inactive: -0.038,inactive: -0.047,inactive: 0.037,inactive: 0.01,inactive: -0.033,inactive: -0.099,inactive: -0.048,inactive: 0.221,inactive: 0.036,inactive: 0.148,inactive: 0.003,–
TNIK isoform 3 (UniProt Q9UKE5),inactive: -0.013,inactive: -0.031,–,inactive: 0.001,inactive: -0.017,inactive: 0.014,inactive: 0.013,inactive: -0.06,inactive: -0.137,inactive: 0.03,inactive: 0.003,inactive: -0.012,inactive: -0.058,inactive: 0.033,–,inactive: -0.008,inactive: 0.114,inactive: -0.008,inactive: 0.026,–
TNRC6B (UniProt Q9UPQ9),inactive: 0.049,inactive: -0.014,inactive: -0.116,inactive: -0.031,inactive: 0.118,inactive: -0.152,–,inactive: -0.059,inactive: -0.065,inactive: -0.002,inactive: 0,inactive: 0.305,inactive: 0.022,–,inactive: 0.031,inactive: 0.084,–,inactive: 0.115,inactive: 0.202,–
TRAF7 (UniProt Q6Q0C0),inactive: 0.021,inactive: 0.031,inactive: 0.054,inactive: 0.1,inactive: -0.105,inactive: -0.064,–,inactive: -0.012,–,–,inactive: -0.013,inactive: -0.018,inactive: -0.311,–,inactive: -0.06,inactive: 0.066,–,inactive: -0.156,–,–
TRAPPC3 (UniProt O43617),inactive: -0.032,inactive: 0.102,inactive: 0.025,inactive: -0.001,inactive: 0.021,inactive: 0.069,inactive: -0.047,inactive: -0.018,inactive: 0.008,inactive: -0.077,inactive: 0.03,inactive: -0.032,inactive: -0.056,inactive: -0.083,inactive: -0.033,inactive: -0.105,inactive: 0.001,inactive: -0.029,inactive: 0.008,–
TRAPPC2L (UniProt Q9UL33),inactive: 0.193,inactive: 0.062,inactive: -0.037,inactive: -0.273,inactive: -0.047,inactive: 0.001,inactive: -0.096,inactive: -0.008,inactive: -0.083,inactive: -0.031,inactive: -0.013,inactive: 0.003,inactive: -0.004,inactive: -0.125,inactive: -0.11,inactive: -0.083,inactive: 0.24,inactive: 0.001,inactive: 0.014,–
TRIM5 (UniProt Q9C035),inactive: -0.061,inactive: 0.075,inactive: 0.111,inactive: 0.162,inactive: 0.012,–,inactive: -0.182,inactive: 0.019,inactive: -0.077,inactive: -0.01,–,–,inactive: 0,inactive: 0.094,inactive: -0.045,inactive: -0.176,inactive: 0.391,–,inactive: 0.047,–
TOM1L2 (UniProt Q6ZVM7),inactive: -0.048,inactive: 0.06,inactive: 0.043,inactive: 0.013,inactive: 0.025,–,–,inactive: -0.026,–,–,inactive: -0.049,–,inactive: -0.031,–,inactive: -0.089,inactive: 0.049,–,inactive: 0.036,–,–
TRAPPC1 (UniProt Q9Y5R8),inactive: 0.019,inactive: 0.095,–,inactive: 0.08,inactive: 0.206,inactive: 0.014,inactive: -0.066,inactive: -0.027,inactive: 0.038,inactive: -0.045,inactive: -0.031,inactive: 0,inactive: -0.044,inactive: -0.043,–,inactive: 0.029,inactive: 0.067,inactive: -0.042,inactive: 0.031,inactive: -0.08
TRPM7 (UniProt Q96QT4),inactive: 0.011,inactive: -0.017,inactive: -0.164,inactive: 0.047,inactive: 0.098,inactive: 0.051,inactive: 0.063,inactive: -0.013,inactive: -0.115,inactive: -0.032,inactive: 0,inactive: 0.09,inactive: -0.083,inactive: 0.219,inactive: 0.03,inactive: -0.131,inactive: -0.013,inactive: 0.175,inactive: 0.336,–
TPK1 (UniProt Q9H3S4),inactive: 0.06,–,inactive: 0.001,inactive: 0.083,–,inactive: -0.025,inactive: -0.014,–,inactive: 0.072,inactive: 0.02,inactive: 0.015,inactive: 0.057,–,inactive: -0.024,inactive: 0.045,inactive: -0.068,inactive: -0.045,inactive: -0.038,inactive: 0.062,–
TRAF3IP1 (UniProt Q8TDR0),–,inactive: 0.008,–,–,inactive: -0.049,–,inactive: -0.033,inactive: 0.118,–,–,inactive: 0.016,–,inactive: 0.045,inactive: 0.048,–,–,inactive: 0.11,inactive: 0.093,–,–
TRIM27 (UniProt P14373),–,inactive: 0.284,–,–,inactive: 0.212,–,–,inactive: -0.104,–,–,–,–,inactive: -0.196,–,–,–,–,–,–,–
TNK2 isoform 3 (UniProt Q07912),inactive: 0.102,–,–,inactive: 0.07,–,inactive: -0.105,–,–,–,–,–,inactive: 0.108,–,–,–,inactive: 0.109,–,–,–,–
TRPT1 isoform 4 (UniProt Q86TN4),inactive: 0.021,inactive: 0.065,–,inactive: -0.08,inactive: 0.021,–,inactive: 0.043,inactive: -0.062,–,–,inactive: 0.11,–,inactive: -0.057,inactive: 0.011,–,inactive: -0.054,inactive: 0.074,inactive: 0.033,–,–
TRA2A (UniProt Q13595),–,–,–,–,–,inactive: 0.02,–,–,inactive: 0.093,inactive: -0.184,–,inactive: 0.171,–,–,–,–,–,–,inactive: 0.093,inactive: 0.2

# Exported bar-delimited: entries from further up.
Target | log2 fold change (erlotinib) | log2 fold change [1] | log2 fold change [2] | log2 fold change [3] | log2 fold change [4] | log2 fold change [5] | log2 fold change [6] | log2 fold change [7] | log2 fold change [8] | log2 fold change [9] | log2 fold change (IRAK-1-4 Inhibitor I) | log2 fold change (ibrutinib) | log2 fold change [10] | log2 fold change (ralimetinib) | log2 fold change [11] | log2 fold change [12] | log2 fold change [13] | log2 fold change (pinometostat) | log2 fold change [14] | log2 fold change [15]
TOM1L2 (UniProt Q6ZVM7) | inactive: -0.048 | inactive: 0.06 | inactive: 0.043 | inactive: 0.013 | inactive: 0.025 | – | – | inactive: -0.026 | – | – | inactive: -0.049 | – | inactive: -0.031 | – | inactive: -0.089 | inactive: 0.049 | – | inactive: 0.036 | – | –
TNK2 isoform 3 (UniProt Q07912) | inactive: 0.102 | – | – | inactive: 0.07 | – | inactive: -0.105 | – | – | – | – | – | inactive: 0.108 | – | – | – | inactive: 0.109 | – | – | – | –
